These results are taken from PubChem BioAssay AID248 (DTP/NCI, 2004).

The subject of this assay is L1210 leukemia ip in BDF1 mice, survival T/C. Briefly: NCI In Vivo Anticancer Drug Screen. Data for tumor model L1210 Leukemia (intraperitoneal) in B6D2F1 (BDF1) mice. Conditions: T/C endpoint: mean survival time, higher T/C = longer survival.
The mark [1] stands for this setting: dose: 400.0 mg/kg/injection, schedule: Q01DX009 (ip), vehicle: Klucel (hydroxypropylcellulose) (HPC).
Setting [2] is: dose: 400.0 mg/kg/injection, schedule: Q04DX003 (ip), vehicle: saline with Tween-80.
Setting [3] is: dose: 400.0 mg/kg/injection, schedule: Q01DX009 (ip), vehicle: saline with Tween-80.
The mark [4] stands for this setting: dose: 300.0 mg/kg/injection, schedule: Q01DX001 (ip), vehicle: saline.
Where [5] appears, read: dose: 200.0 mg/kg/injection, schedule: Q01DX009 (ip), vehicle: saline with Tween-80.
[6] abbreviates: dose: 400.0 mg/kg/injection, schedule: Q04DX003 (ip), vehicle: saline.
[7] abbreviates: dose: 200.0 mg/kg/injection, schedule: Q04DX003 (ip), vehicle: saline with Tween-80.

The list does not hold the whole screen: it is rich in T/C values a quarter to a half above the control, in often repeated tests (any T/C) and in doses without a T/C. Further doses and runs are listed elsewhere. T/C gives the treated animals as a percentage of the vehicle group. Some entries give survivors of the animals treated and no T/C: the source files T/C as zero there, which appears to mark a toxic dose or a test without result, not a measured value. Some doses without a T/C left all or most animals alive at the check, yet need not have been tolerated: the source hardly ever lists a survival T/C far under the control, and the zero likely stands for such cases as well. Survivors were counted at the toxicity check, usually on the fifth day, unless a day is given; later deaths do not show. Schedule codes are those of the source, read here as Q, the interval in days (D) or hours (H), X, the number of doses. Some schedule codes hold Z or #, which are not explained here. Some doses were run more than once; their values stand side by side, smallest first. For survival time, this PubChem deposit counts one and a half times the control or more as active, and values a quarter to a half above the control carry no call in these data; other NCI protocols may use other cut-offs.

With `CC1=CC(=O)CC(C)(C)C1(O)/C=C/C(C)=C/C(=O)O` (stereo not drawn), under “dose: 12.5 mg/kg/injection, schedule: Q01DX009 (ip), vehicle: Klucel (hydroxypropylcellulose) (HPC)”, the survivor count is given as 6 of 6.
Regarding `COc1cccc2c1C(=O)c1c(O)c3c(c(O)c1C2=O)C[C@@](O)(/C(C)=N/NC(N)=S)C[C@@H]3OC1CC(N)C(O)C(C)O1` (stereo partly drawn), the T/C is 131 and 134 % of control (dose: 4.0 mg/kg/injection, schedule: Q01DX009 (ip), vehicle: water); 133 and 134 % of control (dose: 8.0 mg/kg/injection, schedule: Q01DX009 (ip), vehicle: water); 138 and 142 % of control (dose: 16.0 mg/kg/injection, schedule: Q01DX009 (ip), vehicle: water); 132 % of control (dose: 16.0 mg/kg/injection, schedule: Q04DX003 (ip), vehicle: water, evaluated on day 16); 129 % of control (dose: 16.0 mg/kg/injection, schedule: Q04DX003 (ip), vehicle: water, evaluated on day 20).
For the compound `COc1ccc(C(OCC2OC(n3nnc4c(=O)[nH]c(N)nc43)CC2OC(C)=O)(c2ccccc2)c2ccc(OC)cc2)cc1` (stereo not drawn), the survivor count is on record as 0 of 6 (dose: 100.0 mg/kg/injection, schedule: Q01DX001 (ip), vehicle: Klucel (hydroxypropylcellulose) (HPC)) and 0 of 6 (dose: 200.0 mg/kg/injection, schedule: Q01DX001 (ip), vehicle: Klucel (hydroxypropylcellulose) (HPC)).
For the compound `c1ccc(NN(CN(Nc2ccccc2)c2ccccc2)c2ccccc2)cc1`, for the setting “dose: 200.0 mg/kg/injection, schedule: Q01DX001 (ip), vehicle: other”, the survivor count was 6 of 6.
Regarding `NC(Cc1ccccc1)C(=O)NCCCl` (stereo not drawn), the survivor count (dose: 100.0 mg/kg/injection, schedule: Q01DX Z (ip), vehicle: saline) is 6 of 6.
For `O=C(Nc1ccc([N+](=O)[O-])cc1Cl)Oc1ccc2ccccc2c1`, the survivor count under setting [1] was 4 of 6.
Regarding `CCN(CC)C(=O)c1cccc(COc2ccc(N3C(N)=NC(N)=NC3(C)C)cc2Cl)c1`, the survivor count (dose: 100.0 mg/kg/injection, schedule: Q01DX009 (ip), vehicle: saline with Tween-80) is reported as 2 of 6.
For the compound `O=C(Nc1ccccc1)OCC(CN1CCCCC1)OC(=O)Nc1ccccc1` (stereo not drawn), the survivor count is 6 of 6 (dose: 50.0 mg/kg/injection, schedule: Q01DX009 (ip), vehicle: saline with Tween-80) and 2 of 6 under setting [2].
Take `CC1(C)OC(=O)CC(=O)O1`: the survivor count under setting [3] was 0 of 6.
Consider `CC(C)NCCOC(=O)c1ccc(N)cc1`, for which, under setting [4], the survivor count is given as 1 of 6.
On to `CN(Cc1cnc2nc(N)nc(N)c2n1)c1ccc(C(=O)NC(CCC(=O)O)C(=O)O)cc1[N+](=O)[O-]` (stereo not drawn), for which, under “dose: 1.25 mg/kg/injection, schedule: Q01DX009 (ip), vehicle: sodium bicarbonate”, the T/C was 133 % of control.
As to `COc1ccc(C(=O)N/N=C/c2c(Cl)cccc2Cl)cc1`, the survivor count is given as 0 of 6 (dose: 200.0 mg/kg/injection, schedule: Q01DX009 (ip), vehicle: Klucel (hydroxypropylcellulose) (HPC)) and 0 of 6 under setting [1].
For the compound `O=C(O)c1c(F)c(F)c(Oc2c(F)c(F)c(F)c(F)c2F)c(F)c1F`, under “dose: 400.0 mg/kg/injection, schedule: Q04DX003 (ip), vehicle: Klucel (hydroxypropylcellulose) (HPC)”, the survivor count is 6 of 6.
In the case of `C[N+]1(C2CCC3CCC2C3=O)CCCC1` (stereo not drawn), under setting [4], the survivor count is 0 of 6.
As to `O=C(O)c1cc(C(=O)O)cc([N+](=O)[O-])c1`, the survivor count by setting is: under setting [5], 6 of 6; under setting [2], 3 of 6.
In the case of `O=S(=O)(O)c1ccc(-c2c3nc(c(-c4ccc(S(=O)(=O)O)cc4)c4ccc([nH]4)c(-c4ccc(S(=O)(=O)O)cc4)c4nc(c(-c5ccc(S(=O)(=O)O)cc5)c5ccc2[nH]5)C=C4)C=C3)cc1`, the survivor count reads like this: under setting [5], 3 of 6; under setting [3], 1 of 6.
In the case of `CCC(O)(c1ccccc1)c1cnc(C)n1Cc1ccccc1` (stereo not drawn), the survivor count runs as follows: (dose: 400.0 mg/kg/injection, schedule: Q01DX001 (ip), vehicle: saline with Tween-80) 1 of 3 and 2 of 6; (dose: 400.0 mg/kg/injection, schedule: Q04DX002 (ip), vehicle: Klucel (hydroxypropylcellulose) (HPC)) 3 of 3; under setting [2], 3 of 6.
Regarding `O=C1OC(=O)C(Br)C1Br` (stereo not drawn), the survivor count is 3 of 3 (dose: 6.25 mg/kg/injection, schedule: Q04DX003 (ip), vehicle: saline); 0 of 3 (dose: 100.0 mg/kg/injection, schedule: Q04DX003 (ip), vehicle: saline); 0 of 3 (dose: 200.0 mg/kg/injection, schedule: Q04DX003 (ip), vehicle: saline); 0 of 3 under setting [6].
`OC(CI)C(O)C(O)C(O)CI` (stereo not drawn): the T/C (dose: 400.0 mg/kg/injection, schedule: Q01DX009 (ip), vehicle: other) was 128 % of control.
Take `CN(C)C=Nc1ccc(Cl)c(Cl)c1`: the survivor count runs as follows: under setting [7], 0 of 6; under setting [2], 0 of 6.
`CCOP(N)(=O)SCC` (stereo not drawn): the survivor count runs as follows: (dose: 10.0 mg/kg/injection, schedule: Q01DX001 (ip), vehicle: saline) 3 of 6; (dose: 20.0 mg/kg/injection, schedule: Q01DX001 (ip), vehicle: saline) 0 of 6; (dose: 40.0 mg/kg/injection, schedule: Q01DX001 (ip), vehicle: saline) 0 of 6; (dose: 75.0 mg/kg/injection, schedule: Q01DX001 (ip), vehicle: saline) 0 of 6; (dose: 80.0 mg/kg/injection, schedule: Q01DX001 (ip), vehicle: saline) 0 of 6; (dose: 150.0 mg/kg/injection, schedule: Q01DX001 (ip), vehicle: saline) 0 of 6. Also, under setting [4], the survivor count is recorded as 0 of 6.
In the case of `CC(C)C(CN)(CCCN1CCCCC1)c1cccc2ccccc12` (stereo not drawn), the survivor count is, setting by setting: under setting [7], 2 of 6; under setting [2], 0 of 6.
Consider `CCN(C)CCC(CNC(=O)CN(CC)CC)(c1cccc2ccccc12)C(C)C` (stereo not drawn), for which the survivor count under setting [6] was 0 of 6.
For `CC(=O)OC(CC(=O)CC(O)(C(F)(F)F)C(F)(F)F)(C(F)(F)F)C(F)(F)F`, the survivor count (dose: 100.0 mg/kg/injection, schedule: Q04DX003 (ip), vehicle: saline with Tween-80) is given as 1 of 6; the survivor count under setting [7] is 0 of 6; the survivor count under setting [2] is 0 of 6.
